The record followed here is article doi:10.1101/2025.11.26.690573.

Amino acid sequences for entries named in this document (tags omitted).
UniProt P61201: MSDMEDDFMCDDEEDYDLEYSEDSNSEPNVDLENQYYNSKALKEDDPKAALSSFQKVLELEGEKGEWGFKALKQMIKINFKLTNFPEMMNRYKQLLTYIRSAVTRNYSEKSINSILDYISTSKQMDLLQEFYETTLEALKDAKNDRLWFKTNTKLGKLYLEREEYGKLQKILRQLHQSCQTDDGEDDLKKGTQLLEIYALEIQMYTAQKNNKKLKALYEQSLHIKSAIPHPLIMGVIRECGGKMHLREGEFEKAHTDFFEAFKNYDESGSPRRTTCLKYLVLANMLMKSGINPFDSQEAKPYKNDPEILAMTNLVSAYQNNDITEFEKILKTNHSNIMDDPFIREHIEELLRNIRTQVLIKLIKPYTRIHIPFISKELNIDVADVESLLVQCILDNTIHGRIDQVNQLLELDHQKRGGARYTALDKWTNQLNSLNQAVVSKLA
UniProt Q7L5N1: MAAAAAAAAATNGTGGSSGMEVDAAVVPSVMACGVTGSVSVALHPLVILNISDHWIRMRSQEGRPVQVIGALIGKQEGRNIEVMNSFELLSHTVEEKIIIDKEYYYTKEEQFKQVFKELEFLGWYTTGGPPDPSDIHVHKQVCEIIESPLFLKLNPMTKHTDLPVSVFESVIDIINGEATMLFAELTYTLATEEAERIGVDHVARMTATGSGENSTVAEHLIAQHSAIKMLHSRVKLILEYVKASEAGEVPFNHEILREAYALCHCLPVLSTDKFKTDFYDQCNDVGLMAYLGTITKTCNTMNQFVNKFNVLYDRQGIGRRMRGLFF
UniProt Q9UBF6: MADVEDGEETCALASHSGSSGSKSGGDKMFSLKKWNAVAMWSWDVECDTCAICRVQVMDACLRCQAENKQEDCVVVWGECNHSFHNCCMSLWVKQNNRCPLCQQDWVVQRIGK
UniProt Q16531: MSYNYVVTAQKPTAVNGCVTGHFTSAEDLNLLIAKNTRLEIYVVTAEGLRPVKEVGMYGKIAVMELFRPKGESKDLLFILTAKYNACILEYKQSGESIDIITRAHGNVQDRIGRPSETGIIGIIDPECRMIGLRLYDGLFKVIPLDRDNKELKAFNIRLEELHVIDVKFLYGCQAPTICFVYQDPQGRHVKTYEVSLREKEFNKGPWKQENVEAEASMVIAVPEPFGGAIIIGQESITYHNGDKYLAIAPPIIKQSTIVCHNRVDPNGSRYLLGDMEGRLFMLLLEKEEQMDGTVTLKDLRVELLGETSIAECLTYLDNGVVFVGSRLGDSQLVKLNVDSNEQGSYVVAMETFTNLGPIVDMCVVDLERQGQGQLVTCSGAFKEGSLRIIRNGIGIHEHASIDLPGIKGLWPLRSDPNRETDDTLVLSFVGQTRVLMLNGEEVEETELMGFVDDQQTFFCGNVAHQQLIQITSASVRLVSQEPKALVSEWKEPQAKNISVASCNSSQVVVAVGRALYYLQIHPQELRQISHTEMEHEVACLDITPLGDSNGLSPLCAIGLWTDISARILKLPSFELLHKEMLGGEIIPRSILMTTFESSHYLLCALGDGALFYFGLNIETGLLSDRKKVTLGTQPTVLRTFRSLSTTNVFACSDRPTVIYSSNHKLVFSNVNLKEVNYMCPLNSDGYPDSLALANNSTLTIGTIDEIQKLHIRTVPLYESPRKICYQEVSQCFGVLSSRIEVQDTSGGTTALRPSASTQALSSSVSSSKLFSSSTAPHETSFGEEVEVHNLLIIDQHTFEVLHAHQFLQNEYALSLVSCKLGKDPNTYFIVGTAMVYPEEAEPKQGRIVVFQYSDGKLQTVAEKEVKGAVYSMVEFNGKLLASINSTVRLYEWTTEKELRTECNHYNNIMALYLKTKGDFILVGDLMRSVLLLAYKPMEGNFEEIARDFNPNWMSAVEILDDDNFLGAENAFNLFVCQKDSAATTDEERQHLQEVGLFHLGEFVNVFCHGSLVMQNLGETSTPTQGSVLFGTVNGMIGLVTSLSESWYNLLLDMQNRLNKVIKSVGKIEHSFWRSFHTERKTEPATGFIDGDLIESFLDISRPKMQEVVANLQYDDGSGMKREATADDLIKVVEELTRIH
UniProt Q13619: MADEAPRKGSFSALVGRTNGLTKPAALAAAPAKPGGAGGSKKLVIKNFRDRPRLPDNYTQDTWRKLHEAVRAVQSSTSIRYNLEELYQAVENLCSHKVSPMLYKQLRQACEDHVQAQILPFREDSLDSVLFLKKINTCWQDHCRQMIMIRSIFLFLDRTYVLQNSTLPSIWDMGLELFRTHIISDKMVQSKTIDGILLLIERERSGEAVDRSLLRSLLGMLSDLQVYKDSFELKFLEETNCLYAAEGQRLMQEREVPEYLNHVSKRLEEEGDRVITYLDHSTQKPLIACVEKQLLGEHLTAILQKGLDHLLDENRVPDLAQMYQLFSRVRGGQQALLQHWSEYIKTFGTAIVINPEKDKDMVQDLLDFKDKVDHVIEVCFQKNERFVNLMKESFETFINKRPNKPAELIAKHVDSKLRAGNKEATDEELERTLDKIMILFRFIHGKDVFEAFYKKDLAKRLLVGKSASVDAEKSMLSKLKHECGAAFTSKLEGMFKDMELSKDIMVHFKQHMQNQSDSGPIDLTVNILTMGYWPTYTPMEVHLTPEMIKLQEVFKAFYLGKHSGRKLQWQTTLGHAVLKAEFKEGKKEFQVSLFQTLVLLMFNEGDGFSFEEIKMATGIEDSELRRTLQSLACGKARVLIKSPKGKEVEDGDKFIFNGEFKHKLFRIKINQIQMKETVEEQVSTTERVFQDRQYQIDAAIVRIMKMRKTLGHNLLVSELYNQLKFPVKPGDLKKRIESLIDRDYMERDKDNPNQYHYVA
UniProt Q92466: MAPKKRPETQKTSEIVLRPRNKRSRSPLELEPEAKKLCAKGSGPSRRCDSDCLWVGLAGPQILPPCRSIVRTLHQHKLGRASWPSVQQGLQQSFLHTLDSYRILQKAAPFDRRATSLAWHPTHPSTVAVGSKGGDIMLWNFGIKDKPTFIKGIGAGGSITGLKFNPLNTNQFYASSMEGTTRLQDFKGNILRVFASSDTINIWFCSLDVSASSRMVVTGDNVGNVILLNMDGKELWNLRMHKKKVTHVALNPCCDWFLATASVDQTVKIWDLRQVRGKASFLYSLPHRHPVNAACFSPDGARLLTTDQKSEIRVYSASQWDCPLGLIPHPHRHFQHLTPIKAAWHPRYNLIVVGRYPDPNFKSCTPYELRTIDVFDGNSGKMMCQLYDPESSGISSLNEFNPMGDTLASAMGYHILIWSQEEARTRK

Holding throughout (assay): affinity purification with mass spectrometry; HEK293 cells with HBTH-CSN2 or HBTH-CSN6, 1 μM CSN5i-3 or DMSO for 16 hr, in-cell cross-linking with 0.025% formaldehyde, streptavidin resin; LC-MS/MS (DDA and DIA)
Test [1] deals with HBTH-tagged CSN2 (human) (UniProt P61201).
Test [2] deals with HBTH-tagged CSN6 (human) (UniProt Q7L5N1).
Test [3] concerns the target HBTH-tagged CSN2 (human) (UniProt P61201). The source holds these as a separate data set.
In test [4] the target is HBTH-tagged CSN6 (human) (UniProt Q7L5N1). This is another data set of the same source.

Read-outs that look alike come from different tables or passages of the source. Results are given in words; binding and its absence hold for the method and conditions named. Binding seen in cells or lysates may run through a third protein. Here binding means that the protein was enriched with, or labelled near, the bait; the list need not be complete.

Regarding “RBX2 (endogenous) (from UniProt Q9UBF6 1-113)”, the binding result with HBTH-tagged CSN2 (human) [1] and with HBTH-tagged CSN6 (human) [2] was “binds” in each case. Take DDB1 (from UniProt Q16531 1-1140): in the test with HBTH-tagged CSN6 (human) [2], the binding entry was “binds”. Same read-out and setting: the entry for “CUL4A (endogenous) (from UniProt Q13619 1-759)” is “binds”. With DDB2 (from UniProt Q92466 1-427), the binding entry with HBTH-tagged CSN2 (human) [1] and in the test with HBTH-tagged CSN6 (human) [2] was “binds” in each case.

B1: DCAF4 (protein, UniProt Q8WV16 1-495)
chain: MNKSRWQSRRRHGRRSHQQNPWFRLRDSEDRSDSRAAQPAHDSGHGDDESPSTSSGTAGTSSVPELPGFYFDPEKKRYFRLLPGHNNCNPLTKESIRQKEMESKRLRLLQEEDRRKKIARMGFNASSMLRKSQLGFLNVTNYCHLAHELRLSCMERKKVQIRSMDPSALASDRFNLILADTNSDRLFTVNDVKVGGSKYGIINLQSLKTPTLKVFMHENLYFTNRKVNSVCWASLNHLDSHILLCLMGLAETPGCATLLPASLFVNSHPGIDRPGMLCSFRIPGAWSCAWSLNIQANNCFSTGLSRRVLLTNVVTGHRQSFGTNSDVLAQQFALMAPLLFNGCRSGEIFAIDLRCGNQGKGWKATRLFHDSAVTSVRILQDEQYLMASDMAGKIKLWDLRTTKCVRQYEGHVNEYAYLPLHVHEEEGILVAVGQDCYTRIWSLHDARLLRTIPSPYPASKADIPSVAFSSRLGGSRGAPGLLMAVGQDLYCYSYS
Take B1: the binding entry with HBTH-tagged CSN2 (human) [3] and with HBTH-tagged CSN6 (human) [4] was “binds” throughout.

B2: FBXL12 (protein, UniProt Q9NXK8 1-326)
chain: MATLVELPDSVLLEIFSYLPVRDRIRISRVCHRWKRLVDDRWLWRHVDLTLYTMRPKVMWHLLRRYMASRLHSLRMGGYLFSGSQAPQLSPALLRALGQKCPNLKRLCLHVADLSMVPITSLPSTLRTLELHSCEISMAWLHKQQDPTVLPLLECIVLDRVPAFRDEHLQGLTRFRALRSLVLGGTYRVTETGLDAGLQELSYLQRLEVLGCTLSADSTLLAISRHLRDVRKIRLTVRGLSAPGLAVLEGMPALESLCLQGPLVTPEMPSPTEILSSCLTMPKLRVLELQGLGWEGQEAEKILCKGLPHCMVIVRACPKESMDWWM
Take B2: the binding entry with HBTH-tagged CSN2 (human) [3] and in the test with HBTH-tagged CSN6 (human) [4] was “binds” in each case.
